Results deposited as PubChem BioAssay AID1224826 (NIAID, 2016)

- Aim: 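Knock-downs that raise or lower Tnf reporter signal after endotoxin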 (primary screen)
- Cells: RAW264.7 G9 macrophages from mouse bearing reporters for p65 (GFP) and the Tnf promoter (mCherry)
- Reagents: siRNA pool against mouse genes, 100 nM
- Time to read-out: 16 h of LPS stimulation, after 2 days of siRNA transfection
- Challenge: bacterial lipopolysaccharide (Salmonella minnesota R595), 10 ng/ml
- Read-out: 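Imaged Tnf reporter mCherry in nuclei, minus background, normalised per plate to the median and expressed as robust z-scores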
- Reading the numbers: Tnf reporter robust z-score: higher = stronger Tnf promoter reporter signal after LPS
- Active means: 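Called active when robust z-score is at most -1.3, matching the median of the Tlr4 knock-down control, or over 3; control wells and wells with under 50 cells never active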
- Meaning of the calls: active = Tnf reporter clearly lowered or raised; inactive = no clear change in Tnf reporter
The whole screen tested about 17,000 reagents; below is an unselected part. About 1,110 of them (6.6%) count as active. 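Active means lowered or raised reporter signal; replicate intensities are raw and not normalised per plate.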 Not all columns of the deposit are shown. Reagent sequences are not shown.

Against Siglech (sialic acid binding Ig-like lectin H), the values are Tnf reporter robust z-score -0.41; fewer than 50 cells in well enough cells in well; inactive.
After knock-down of Or2y1f (olfactory receptor family 2 subfamily Y member 1F), the screen gave Tnf reporter robust z-score -1.04; fewer than 50 cells in well enough cells in well; inactive.
After knock-down of Lrrc57 (leucine rich repeat containing 57) the results were Tnf reporter robust z-score 2.3; fewer than 50 cells in well enough cells in well; inactive.
Against Klhl7 (kelch-like 7), the entry reads Tnf reporter robust z-score 1.9; fewer than 50 cells in well enough cells in well; inactive.
Mta2 (metastasis-associated gene family, member 2) showed Tnf reporter robust z-score 0.93; fewer than 50 cells in well enough cells in well; inactive.
With knock-down of Mcm9, the record shows fewer than 50 cells in well fewer than 50 cells per well; well left out of calls; inactive.
Depletion of Slc3a2 came out at: fewer than 50 cells in well fewer than 50 cells per well; well left out of calls; inactive.
With knock-down of Rtn4rl1 (reticulon 4 receptor-like 1), the screen gave Tnf reporter robust z-score -0.93; fewer than 50 cells in well enough cells in well; inactive.
Against Trir (telomerase RNA component interacting RNase) the deposit lists Tnf reporter robust z-score 0.26; fewer than 50 cells in well enough cells in well; inactive.
Knock-down of Tm2d2 (TM2 domain containing 2) resulted in: fewer than 50 cells in well fewer than 50 cells per well; well left out of calls; inactive.
Against Dgkk (diacylglycerol kinase kappa), the entry reads Tnf reporter robust z-score 0; fewer than 50 cells in well enough cells in well; inactive.
Vmn1r13 (vomeronasal 1 receptor 13) scored fewer than 50 cells in well fewer than 50 cells per well; well left out of calls; inactive.
Pou2af1 (POU domain, class 2, associating factor 1) scored Tnf reporter robust z-score -0.93; fewer than 50 cells in well enough cells in well; inactive.
With knock-down of Xk the results were Tnf reporter robust z-score -0.4; fewer than 50 cells in well enough cells in well; inactive.

Only “fewer than 50 cells in well”, for 3 of the entries above:
Tm2d2 (TM2 domain containing 2) = fewer than 50 cells per well; well left out of calls
Dgkk (diacylglycerol kinase kappa) = enough cells in well
Vmn1r13 (vomeronasal 1 receptor 13) = fewer than 50 cells per well; well left out of calls

The listing continues.
Silencing of Mrps33 (mitochondrial ribosomal protein S33) resulted in: Tnf reporter robust z-score -1.23; fewer than 50 cells in well enough cells in well; inactive.
With knock-down of Elf3 (E74-like factor 3) the results were Tnf reporter robust z-score -0.5; fewer than 50 cells in well enough cells in well; inactive.
Hnrnpm (heterogeneous nuclear ribonucleoprotein M) scored Tnf reporter robust z-score 0.28; fewer than 50 cells in well enough cells in well; inactive.
Against Zfp292 (zinc finger protein 292), the entry reads Tnf reporter robust z-score 0.25; fewer than 50 cells in well enough cells in well; inactive.
Silencing of Tas1r2 (taste receptor, type 1, member 2) gave: Tnf reporter robust z-score -0.36; fewer than 50 cells in well enough cells in well; inactive.
After knock-down of Pigq (phosphatidylinositol glycan anchor biosynthesis, class Q) the results were Tnf reporter robust z-score 1.47; fewer than 50 cells in well enough cells in well; inactive.
Kel (Kell metallo-endopeptidase) gave Tnf reporter robust z-score 0.75; fewer than 50 cells in well enough cells in well; inactive.
After knock-down of Impg2 (interphotoreceptor matrix proteoglycan 2), the record shows Tnf reporter robust z-score -0.47; fewer than 50 cells in well enough cells in well; inactive.
After knock-down of Cyp2f2 (cytochrome P450, family 2, subfamily f, polypeptide 2), the screen gave Tnf reporter robust z-score 1.88; fewer than 50 cells in well enough cells in well; inactive.
For Slc14a1 the deposit lists Tnf reporter robust z-score -1.36; fewer than 50 cells in well enough cells in well; active.
After knock-down of Actrt1 (actin-related protein T1) the results were Tnf reporter robust z-score -0.46; fewer than 50 cells in well enough cells in well; inactive.
Silencing of LOC67527 (murine leukemia retrovirus) resulted in: Tnf reporter robust z-score 4.98; fewer than 50 cells in well enough cells in well; active.
Against Cib2 (calcium and integrin binding family member 2) the deposit lists Tnf reporter robust z-score -0.68; fewer than 50 cells in well enough cells in well; inactive.
